This experiment is described as follows: qHTS Assay for Modulators of Lamin A Splicing. Conditions: HeLa LMNA splicing GFP/RFP minigene ratio, 48 h. The method, boiled down:
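Read-out is the ratio of GFP to DsRed2 object intensity, acquired by 488 nm laser-scanning cytometry on HeLa lamin A-EGFP minigene reporter cells. Compound incubation 48 hrs at 37 °C in Opti-MEM with 2% FBS; DMSO 0.5% final.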

[1] abbreviates: measured here: RFP viability control channel.
[2] abbreviates: measured here: GFP splicing reporter channel.

SMILES strings stand for the structures. “And” between values parts separate entries of the source, which are not always exact repeats. Identical values can stand only once. The list shows a part of the results. Shown are side measurements of this screen, not its main read-out; they come without a call. The list favours compounds with an active or inconclusive main result. Words in brackets tell the shape of the fitted curve; partial curves, single points and poor fits give uncertain potencies.

Broadly, the AC50 is the midpoint of the concentration-response curve, whichever way the signal moves.

Consider `O=C(c1ccccc1)c1cccc(NC(=O)c2ccc(Br)o2)c1`, for which, under setting [1], the concentration at half-maximal activity (AC50) is 12.6 µM [rising, single point]. Still for that read-out and setting: then `Cc1nn(Cc2ccc(F)cc2)c(C)c1NC(=O)c1noc2c1CCCCC2`, with 14.1 µM [rising, single point].

On to `Cc1cc(C(=O)NCc2cc(C)n(C)n2)sc1-c1ccccc1`, for which the concentration at half-maximal activity (AC50) reads like this: under setting [2], 14.1 µM [rising, single point]; under setting [1], 14.1 µM [rising, partial curve]. As to `Cc1ccccc1NC(=O)Cn1c(SCC(=O)Nc2ccc(F)cc2)nc2ccccc21`, the concentration at half-maximal activity (AC50) under setting [2] was 2.51 µM [falling, partial curve]. In the case of `CC(C)CN(C(=O)c1cccc(S(=O)(=O)N2CCCCC2)c1)C1CCS(=O)(=O)C1` (configuration not stated), the AC50 under setting [2] was 22.4 µM [falling, partial curve]. `COc1ccc(C(=O)N2N=C(c3cccc(OC)c3)CC2(O)C(F)(F)F)cc1` (configuration not stated): the AC50 is 15.8 µM [rising, single point] under setting [2] and 22.4 µM [rising, single point] under setting [1]. As to `COCCNc1nc(-c2c(C)noc2C)nc2ccccc12`, the AC50 under setting [2] is 35.5 µM [falling, single point]. Turning to `CCn1c(SCC(=O)Nc2ccc(OCc3ccccc3)cc2)nnc1-c1ccco1`, the AC50 was 12.6 µM [rising, single point] under setting [2] and 14.1 µM [rising, partial curve] under setting [1]. For the molecule `CCCOc1ccccc1C1CC(=O)Nc2cc3c(cc21)OCO3` (configuration not stated), the AC50 under setting [1] was 28.2 µM [falling, single point].

Turning to `CN(C)c1ccc(/C=C2\CCC/C(=C\c3ccccc3)C2=O)cc1`, the concentration at half-maximal activity (AC50) by setting is: under setting [2], 11.2 µM [rising, single point]; under setting [1], 22.4 µM [rising, partial curve, poor fit].

In the case of `COc1ccc(/C=C/C(=O)c2ccc3c(c2)OCCO3)cc1[N+](=O)[O-]`, under setting [1], the concentration at half-maximal activity (AC50) was 35.5 µM [falling, single point]. As for `COc1ccc(NC(=O)c2cc3c(-c4ccc(OC)c(OC)c4)nn(C)c3s2)cc1OC`, the AC50 is, setting by setting: under setting [2], 15.8 µM [falling, single point]; under setting [1], 35.5 µM [falling, single point].

For `O=C(COc1ccc(S(=O)(=O)NC2CCCCC2)cc1)N1CCN(c2cccc(Cl)c2)CC1`, under setting [1], the AC50 is 3.55 µM [rising, full curve]. As for `CCn1cc(C(=O)N2CCN(c3ccc(OC)cc3)CC2)c(=O)c2cc(S(=O)(=O)N3CCCCC3)ccc21`, the AC50 under setting [1] is 0.0224 µM [rising, full curve, poor fit].

In the case of `Cc1ccc(C(c2nnnn2CCc2ccccc2)N2CCC(C)CC2)cc1` (configuration not stated), the AC50 under setting [1] was 12.6 µM [rising, partial curve, poor fit].

For `Cc1cc(SCC(=O)Nc2cccc(S(=O)(=O)NC3=NCCCCC3)c2)c(C)cc1Br`, the AC50 under setting [2] is 12.6 µM [rising, single point] and the AC50 under setting [1] is 25.1 µM [rising, single point]. On to `Cc1cccc(NC(=O)c2ccccc2NC(=O)C(C)(C)C)n1`, for which, under setting [2], the AC50 was 6.31 µM [rising, partial curve]. `N#Cc1c(-c2cccc(Br)c2)cc(-c2cccnc2)nc1N`: the half-maximal activity concentration (AC50) under setting [1] was 10 µM [rising, partial curve]. For the molecule `O=C1CC(c2ccsc2)c2ccc3ccccc3c2N1` (configuration not stated), the concentration at half-maximal activity (AC50) reads like this: under setting [2], 20 µM [falling, single point]; under setting [1], 7.08 µM [falling, partial curve]. Regarding `Cc1ccc(N=C2NC(=O)/C(=C\c3ccc(C)s3)S2)cc1`, the AC50 is 0.355 µM [rising, full curve, poor fit] under setting [2] and 1.12 µM [rising, partial curve, poor fit] under setting [1]. As for `COc1cccc2sc(Nc3nc(-c4ccccn4)cs3)nc12`, the AC50 under setting [1] was 3.98 µM [rising, single point]. The same measure, in the same setting: the figure for `Cc1ccccc1Nc1sc(C(=O)c2ccc3c(c2)OCO3)c(N)c1S(=O)(=O)c1ccccc1` is 20 µM [rising, single point]; for `CN(C)C(=O)/C(C#N)=C\c1cc(Br)c(Sc2ccc(Cl)cc2)o1` it is 10 µM [rising, partial curve]. Same read-out and setting: the figure for `Cc1nc2ccccc2c(=O)n1NC(=O)c1c(O)c2c(n(CC(C)C)c1=O)CCCC2` is 14.1 µM [rising, single point]. As to `O=C(CSc1nc2ncc(Cl)cc2[nH]1)c1c[nH]c2ccccc12`, the concentration at half-maximal activity (AC50) under setting [2] is 20 µM [falling, single point] and the AC50 under setting [1] is 25.1 µM [falling, single point]. For `Cc1cc(C)cc(NC(=O)CCCSc2nc3ccccc3[nH]2)c1`, the half-maximal activity concentration (AC50) is, setting by setting: under setting [2], 14.1 µM [rising, partial curve, poor fit]; under setting [1], 11.2 µM [rising, partial curve]. In the case of `Cc1c(NC(=O)c2ccc3c(c2)OCO3)cccc1-c1nc2ccccc2o1`, the concentration at half-maximal activity (AC50) is 20 µM [rising, partial curve] under setting [2] and 20 µM [rising, partial curve] under setting [1]. On to `CCn1c(SCc2ccccc2)nnc1-c1nonc1NC(C)=O`, for which the concentration at half-maximal activity (AC50) under setting [1] is 0.00316 µM [falling, full curve, poor fit]. `O=C1c2ccccc2C(=O)N1CCc1nc2ccccc2c(=O)n1Cc1ccco1`: the AC50 under setting [2] is 31.6 µM [rising, single point].

Turning to `Cc1ccc(SCC2(O)CCN(S(=O)(=O)c3ccc(Cl)cc3)CC2)cc1`, the concentration at half-maximal activity (AC50) under setting [1] is 28.2 µM [rising, single point]. With `CCOc1ccc(NC(=O)CSc2n[nH]c(N)n2)c([N+](=O)[O-])c1`, under setting [2], the AC50 was 11.2 µM [rising, partial curve]. Still for that read-out and setting: then `O=c1nc(/C=C/c2cc([N+](=O)[O-])ccc2Cl)cc(C(F)(F)F)[nH]1`, with 35.5 µM [falling, single point]; and `Cc1cc(NC(=O)CN2C(=O)C(C)(C)c3ccccc32)ccc1Br`, with 35.5 µM [falling, single point]. For the molecule `COc1cccc(OCCOCC(O)CN2CCN(Cc3ccc(Cl)cc3)CC2)c1` (configuration not stated), the AC50 is 12.6 µM [rising, single point] under setting [2] and 22.4 µM [rising, partial curve] under setting [1]. For `O=C(NC(=S)Nn1cnc2c(cnn2-c2ccccc2)c1=O)c1ccc(Cl)cc1`, under setting [1], the AC50 is 15.8 µM [rising, partial curve]. The same measure, in the same setting: the figure for `CC(=O)c1c(C)[nH]c(C(=O)OCC(=O)NCCc2ccc(Cl)cc2)c1C` is 12.6 µM [rising, single point]. Still for that read-out and setting: the figure for `CCC(=O)NCC(c1ccco1)N1CCN(c2ccc(OC)cc2)CC1` (configuration not stated) is 0.0708 µM [falling, full curve, poor fit].

As to `CN(C)c1ccc(N=Nc2ccccc2C(=O)OCC(=O)NCC2CCCCC2)cc1`, the AC50 by setting is: under setting [2], 35.5 µM [rising, single point]; under setting [1], 31.6 µM [rising, single point]. `Cc1cc(Cl)c(S(=O)(=O)N2CCN(c3ccccc3)CC2)cc1OCC(N)=O`: the concentration at half-maximal activity (AC50) under setting [1] was 17.8 µM [rising, partial curve].

Take `CCC(C)c1ccccc1NC(=O)Cc1coc2cc3c(cc12)CCC3` (configuration not stated): the AC50 under setting [1] was 35.5 µM [rising, single point]. As to `CCN1/C(=C/c2ccc3cc(C)ccc3[n+]2CC)Sc2cc(C)c(C)cc21`, the AC50 was 0.631 µM [rising, single point] under setting [2] and 3.98 µM [rising, full curve] under setting [1].

`CCCCN(C(=O)c1cccc2c(=O)c(C)c(-c3ccccc3)oc12)c1ccccc1`: the concentration at half-maximal activity (AC50) is, setting by setting: under setting [2], 3.16 µM [falling, single point]; under setting [1], 3.16 µM [falling, single point]. Regarding `Cc1ccc(NC(=O)CSc2ccccc2NC(=O)c2ccccc2Cl)cc1Cl`, under setting [1], the AC50 was 17.8 µM [rising, single point]. Still for that read-out and setting: the figure for `Cc1c(/C=N\NC(=O)C2COc3ccc(C(C)(C)C)cc3O2)c2ccccc2n1C` (configuration not stated) is 5.01 µM [rising, single point]. Turning to `COc1ccccc1CNC(=O)[C@@H]1CCCN1C(=O)C1CCN(S(=O)(=O)c2ccc(C)cc2)CC1`, the AC50 reads like this: under setting [2], 0.891 µM [rising, partial curve]; under setting [1], 15.8 µM [rising, partial curve, poor fit]. With `C/C=C/c1ccc(OCC(=O)Nc2ccc(C(N)=O)cc2)c(OC)c1`, the AC50 under setting [1] was 5.62 µM [rising, single point]. For the molecule `CC(=O)N1CCN(C(=S)c2ccc(N(C)C)cc2)CC1`, the AC50 under setting [1] is 5.62 µM [rising, single point]. `CCN(CC)CCNC(=O)C(=O)NCC1OCCN1S(=O)(=O)c1ccc2c(c1)OCCO2` (configuration not stated): under setting [2], the AC50 was 1 µM [rising, partial curve]. Consider `Cc1ccc(C)c(NC(=O)CCC(=O)OC(C(=O)c2ccccc2)c2ccccc2)c1` (configuration not stated), for which the AC50 was 5.01 µM [rising, single point] under setting [2] and 3.55 µM [rising, single point] under setting [1]. As to `COC(=O)c1sccc1NS(=O)(=O)c1ccc(OC)cc1`, the AC50 under setting [1] was 7.08 µM [rising, partial curve, poor fit].

Take `O=C(CCCOc1ccc(Cl)cc1Cl)N1CCN(c2ccccn2)CC1`: the concentration at half-maximal activity (AC50) by setting is: under setting [2], 11.2 µM [rising, single point]; under setting [1], 14.1 µM [rising, single point].

As to `N=C(N)SCCc1cnc[nH]1`, the AC50 reads like this: under setting [2], 35.5 µM [rising, single point]; under setting [1], 5.62 µM [falling, single point].

In the case of `CC1(c2ccccc2)CC(C)(C)N(C(=O)C2CCCO2)c2ccccc21` (configuration not stated), the AC50 reads like this: under setting [2], 22.4 µM [rising, single point]; under setting [1], 12.6 µM [rising, single point]. Take `COc1ccc(NC(C)=O)cc1NC(=O)CN1CCN(C2c3ccccc3-c3ccccc32)CC1`: the AC50 runs as follows: under setting [2], 17.8 µM [falling, single point]; under setting [1], 20 µM [falling, partial curve]. Turning to `CNC[C@H](O)c1cccc(O)c1`, the AC50 reads like this: under setting [2], 1.12 µM [rising, full curve, poor fit] and 447 nM [falling, full curve, poor fit]; under setting [1], 5.62 µM [rising, single point] and 1.58 µM [falling, partial curve, poor fit].

The values are drawn from PubChem BioAssay AID1487 (National Center for Advancing Translational Sciences (NCATS), 2009).
